{"source": "patent US8754043B2", "about": "“Epidermal growth factor compositions” (Bharat Biotech International Limited, priority 2005, dated 2014)", "system": "3T3 cell lines", "assay": "EGF activity by proliferation of 3T3 cell lines", "assay_type": "cell-based", "details": "37 degree C., 5-8 days", "note": "At least one peptide structure holds a part that was inferred or is arguable (an end, a ring closure or a residue)."}
{"smiles": "CC[C@H](C)[C@@H]1NC(=O)[C@H](Cc2ccc(O)cc2)NC(=O)CNC(=O)[C@H](C(C)C)NC(=O)[C@H](C(C)C)NC(=O)[C@@H](NC(=O)[C@H](CC(N)=O)NC(=O)[C@@H]2CSSC[C@@H]3NC(=O)[C@H](Cc4ccc(O)cc4)NC(=O)CNC(=O)[C@H](CC(=O)O)NC(=O)[C@H](Cc4c[nH]cn4)NC(=O)[C@H](CO)NC(=O)[C@H](CC(C)C)NC(=O)[C@@H]4CCCN4C(=O)[C@@H](NC(=O)[C@H](CCC(=O)O)NC(=O)[C@H](CO)NC(=O)[C@H](CC(=O)O)NC(=O)[C@H](CO)NC(=O)[C@@H](N)CC(N)=O)CSSC[C@H](NC(=O)[C@H](C(C)C)NC(=O)CNC(=O)[C@H](CC(=O)O)NC(=O)[C@H](Cc4c[nH]cn4)NC(=O)[C@H](CC(C)C)NC3=O)C(=O)N[C@@H](CCSC)C(=O)N[C@@H](Cc3ccc(O)cc3)C(=O)N[C@@H]([C@@H](C)CC)C(=O)N[C@@H](CCC(=O)O)C(=O)N[C@@H](C)C(=O)N[C@@H](CC(C)C)C(=O)N[C@@H](CC(=O)O)C(=O)N[C@@H](CCCCN)C(=O)N[C@@H](Cc3ccc(O)cc3)C(=O)N[C@@H](C)C(=O)N2)CSSC[C@@H](C(=O)N[C@@H](CCC(N)=O)C(=O)N[C@@H](Cc2ccc(O)cc2)C(=O)N[C@@H](CCCNC(=N)N)C(=O)N[C@@H](CC(=O)O)C(=O)N[C@@H](CC(C)C)C(=O)N[C@@H](CCCCN)C(=O)N[C@@H](Cc2c[nH]c3ccccc23)C(=O)N[C@@H](Cc2c[nH]c3ccccc23)C(=O)N[C@@H](CCC(=O)O)C(=O)N[C@@H](CC(C)C)C(=O)N[C@@H](CCCNC(=N)N)C(=O)O)NC(=O)[C@H](CCCNC(=N)N)NC(=O)[C@H](CCC(=O)O)NC(=O)CNC1=O", "note": "[EGF, Epidermal Growth Factor]", "values": [{"measurement": "proliferation of 3T3 cells (cell count) compared with controls", "result": "significantly higher"}]}
